Measured values reported in publication doi:10.1101/2021.04.20.440500.
These are yes or no findings as the source states them, for the method shown. Binding seen in cells or lysates may run through a third protein. These calls come from enrichment with a bait or labelling near it, and not all partners need be listed. Tags and fused reporters may be left off the sequences shown.

B1: TOM40 (protein, UniProt O96008 1-361)
chain: MGNVLAASSPPAGPPPPPAPALVGLPPPPPSPPGFTLPPLGGSLGAGTSTSRSSERTPGAATASASGAAEDGACGCLPNPGTFEECHRKCKELFPIQMEGVKLTVNKGLSNHFQVNHTVALSTIGESNYHFGVTYVGTKQLSPTEAFPVLVGDMDNSGSLNAQVIHQLGPGLRSKMAIQTQQSKFVNWQVDGEYRGSDFTAAVTLGNPDVLVGSGILVAHYLQSITPCLALGGELVYHRRPGEEGTVMSLAGKYTLNNWLATVTLGQAGMHATYYHKASDQLQVGVEFEASTRMQDTSVSFGYQLDLPKANLLFKGSVDSNWIVGATLEKKLPPLPLTLALGAFLNHRKNKFQCGFGLTIG
B2: SAM50 (protein, UniProt Q9Y512 1-469)
chain: MGTVHARSLEPLPSSGPDFGGLGEEAEFVEVEPEAKQEILENKDVVVQHVHFDGLGRTKDDIIICEIGDVFKAKNLIEVMRKSHEAREKLLRLGIFRQVDVLIDTCQGDDALPNGLDVTFEVTELRRLTGSYNTMVGNNEGSMVLGLKLPNLLGRAEKVTFQFSYGTKETSYGLSFFKPRPGNFERNFSVNLYKVTGQFPWSSLRETDRGMSAEYSFPIWKTSHTVKWEGVWRELGCLSRTASFAVRKESGHSLKSSLSHAMVIDSRNSSILPRRGALLKVNQELAGYTGGDVSFIKEDFELQLNKQLIFDSVFSASFWGGMLVPIGDKPSSIADRFYLGGPTSIRGFSMHSIGPQSEGDYLGGEAYWAGGLHLYTPLPFRPGQGGFGELFRTHFFLNAGNLCNLNYGEGPKAHIRKLAECIRWSYGAGIVLRLGNIARLELNYCVPMGVQTGDRICDGVQFGAGIRFL
B3: DJC11 (protein, UniProt Q9NVH1 1-559)
chain: MATALSEEELDNEDYYSLLNVRREASSEELKAAYRRLCMLYHPDKHRDPELKSQAERLFNLVHQAYEVLSDPQTRAIYDIYGKRGLEMEGWEVVERRRTPAEIREEFERLQREREERRLQQRTNPKGTISVGVDATDLFDRYDEEYEDVSGSSFPQIEINKMHISQSIEAPLTATDTAILSGSLSTQNGNGGGSINFALRRVTSAKGWGELEFGAGDLQGPLFGLKLFRNLTPRCFVTTNCALQFSSRGIRPGLTTVLARNLDKNTVGYLQWRWGIQSAMNTSIVRDTKTSHFTVALQLGIPHSFALISYQHKFQDDDQTRVKGSLKAGFFGTVVEYGAERKISRHSVLGAAVSVGVPQGVSLKVKLNRASQTYFFPIHLTDQLLPSAMFYATVGPLVVYFAMHRLIIKPYLRAQKEKELEKQRESAATDVLQKKQEAESAVRLMQESVRRIIEAEESRMGLIIVNAWYGKFVNDKSRKSEKVKVIDVTVPLQCLVKDSKLILTEASKAGLPGFYDPCVGEEKNLKVLYQFRGVLHQVMVLDSEALRIPKQSHRIDTDG

Target: T1, TCAIM-eGFP fusion protein (UniProt Q66JZ4)
T1 sequence: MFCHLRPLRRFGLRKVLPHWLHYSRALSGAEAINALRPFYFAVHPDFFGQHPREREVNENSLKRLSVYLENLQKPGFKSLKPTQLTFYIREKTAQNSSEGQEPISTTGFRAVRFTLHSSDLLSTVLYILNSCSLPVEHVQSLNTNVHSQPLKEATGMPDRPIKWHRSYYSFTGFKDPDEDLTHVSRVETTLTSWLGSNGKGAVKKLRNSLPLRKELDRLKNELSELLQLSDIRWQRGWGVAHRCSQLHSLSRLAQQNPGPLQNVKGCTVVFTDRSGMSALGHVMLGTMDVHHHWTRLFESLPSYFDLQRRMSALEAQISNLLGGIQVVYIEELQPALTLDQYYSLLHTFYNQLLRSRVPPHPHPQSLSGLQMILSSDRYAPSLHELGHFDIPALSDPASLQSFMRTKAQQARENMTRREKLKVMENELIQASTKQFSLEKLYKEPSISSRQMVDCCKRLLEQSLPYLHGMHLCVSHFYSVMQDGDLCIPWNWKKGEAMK
Test: affinity purification with mass spectrometry

| Binder | binding |
| --- | --- |
| B1 | binds |
| B2 | binds |
| B3 | binds |
